The text below walks through data of article PMC4315410, “A New PAMPA Model Proposed on the Basis of a Synthetic Phospholipid Membrane” (PLoS ONE, 2015).

Format in all cases: in vitro ADME
Common to all, as to conditions: for Papp at 16 h: PAMPA, read-out: P e
For orientation: PAMPA measures passive passage across an artificial lipid membrane.

Data set [1] can be described thus: PAMPA with synthetic phospholipid membrane, octyl chain (C8).
Data set [2] can be described thus: PAMPA with synthetic phospholipid membrane, decyl chain (C10). How it is done: The PAMPA evolution instrument from pION Inc. was used in this study. In PAMPA, a “sandwich” structure was formed by a 96-well microtiter plate and a 96-well filter plate from Millipore (IPVH, 125 μm thick filter, 0.45 μm pore), then wetted with a 4 μl 2% w/v phospholipid compound solution in n-dodecane.
The stock solutions of the drug samples were prepared at 10 mM concentrations in DMSO and stored at 0°C before use. Before being added to a 96-well filter plate, the stock solution was diluted first with buffer to achieve a final sample concentration of 10∼50 μM and to reduce the DMSO concentration below 1% (v/v).
The PAMPA plate was filled with a 300 μl diluted drug solution to prepare the “donor” wells, and the 96-well filter plate containing a synthetic phospholipid membrane was then placed on the donor wells. The “acceptor” wells were filled with 200 μl of buffer solution and placed on top of the “sandwich”, and the PAMPA instruments were incubated at 25°C in a sealed and saturated humidity container for a specified time. After reaching the permeation time, the PAMPA plate sandwich was separated, and the amount of drugs in both the donor and acceptor compartments were measured by comparing the experimental spectra with the UV spectrum (220∼400 nm) obtained from reference standards.
The P e data for the test compounds were calculated using equation [28]: Pe=−2.303VaVd/(Va+Vd)A(t−t0)lg{1−(Va+Vd)Ca(t)/VdSCd(0)} where S=VaCa(t)/VdCd(0)+Cd(t)/Cd(0) Va is the acceptor well volume (i.e., 0.2 ml in this study), Vd is the donor well volume (i.e., 0.3 ml in this study), A is the filter area (i.e., 0.2826 cm^2 in this study), t0 is the steady-state time to fill the membrane (i.e., average 1140 s in this study), t is the permeation time, Ca(t) is the concentration of the drug in the acceptor well at time t, Cd(t) is the concentration of drug in the donor well at time t, and Cd(0) is the concentration of the drug in the donor well at the start of the experiment. The factor S was the fraction of samples remaining in the donor and the acceptor wells at time t.
The P e of each compound was measured at varying incubation times (4–20 h) and pH gradients (4.6–9.32). In the incubation time assays, the pH was 7.4 in both the donor and acceptor wells. In the pH-gradient assays, the pH of the drug solutions was varied using NaOH-treated universal buffer (pION Inc.) in the donor wells, and the pH in the acceptor solution was pH 7.4 [15]. In addition, the incubation time in the pH-gradient test assays was 16 h.

The nature of data set [3]: PAMPA with synthetic phospholipid membrane, lauryl chain (C12).

Turning to `CC(C)NCC(O)COc1ccc(CC(N)=O)cc1` (stereo not shown) [Atenolol], the P e in data set [1] (C8, donor pH 8.2, acceptor pH 7.4, 16 h) is 3.8 ×10^–6 cm/s; in data set [2] (C10, donor pH 9.32, acceptor pH 7.4, 16 h) it was 4.4 ×10^–6 cm/s; in data set [3] (C12, donor pH 8.2, acceptor pH 7.4, 16 h) it was 3.5 ×10^–6 cm/s; in data set [3] (C12, donor pH 9.32, acceptor pH 7.4, 16 h), 4.4 ×10^–6 cm/s. The Papp at 16 h in data set [1] (C8, donor pH 6.57, acceptor pH 7.4, 16 h) was determined as 3 ×10⁻⁶ cm/s; in data set [1] (C8, donor pH 9.32, acceptor pH 7.4, 16 h), 4.4 ×10⁻⁶ cm/s; in data set [1] (pH 7.4, C8 membrane, incubation time 16 h, pH 7.4 donor and acceptor, 25°C), 3.8 ± 0.4 ×10⁻⁶ cm/s; in data set [2] (C10, donor pH 4.98, acceptor pH 7.4, 16 h), 1.7 ×10⁻⁶ cm/s; in data set [2] (C10, donor pH 6.57, acceptor pH 7.4, 16 h), 3.2 ×10⁻⁶ cm/s; in data set [2] (C10, donor pH 8.2, acceptor pH 7.4, 16 h), 3.5 ×10⁻⁶ cm/s. For the same compound, the Papp at 16 h was 5.2 ± 0.4 ×10⁻⁶ cm/s in data set [2] (pH 7.4, C10 membrane, incubation time 16 h, pH 7.4 donor and acceptor, 25°C); 3.3 ×10⁻⁶ cm/s in data set [3] (C12, donor pH 6.57, acceptor pH 7.4, 16 h); 5.9 ± 0.5 ×10⁻⁶ cm/s in data set [3] (pH 7.4, C12 membrane, incubation time 16 h, pH 7.4 donor and acceptor, 25°C).
